{
  "source": "PubChem BioAssay AID504467",
  "about": "(National Center for Advancing Translational Sciences (NCATS), 2011)",
  "note": "Out of some 330,000 compounds screened, about 7,700 (2.3%) were called active. Inconclusive results, whose numbers are uncertain, are shown with a selection of clear calls. Calls follow the shape of the dose curve; as a rule, active = well fitted inhibition curve with a large enough effect; inconclusive = small, poorly fitted or top-dose-only effect, or effect the other way; inactive = flat fitted curve, though single readings scatter. Potencies of inconclusive entries are doubtful fits and often do not repeat. % is scaled to controls: 0 for no effect and ±100 for the full control effect; potency is read from the fitted curve at half-maximal effect.",
  "data": [
    {"experiment": "qHTS screen for small molecules that inhibit ELG1-dependent DNA repair in human embryonic kidney (HEK293T) cells expressing luciferase-tagged ELG1; also: nearly all actives have a fitted effect of over 55% in size", "conditions": "HEK293T ELG1-luciferase reporter, luminescence, 16 h, DNA damage induced by 5-fluorouridine; activity change, negative = inhibition: at 46.1 µM (top of the series)", "method_in_brief": "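HEK293T cells expressing luciferase-tagged ELG1 (2,000/well) received 5-Fluorouridine plus compound or DMSO for 16 hr at 37 °C. Luciferase was read by ONE-Glo luminescence after 30 min at room temperature.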", "values": [
      {"compound": "Cc1ccc(NC(=S)N(Cc2cccs2)Cc2cc3cc(C)ccc3[nH]c2=O)cc1", "activity change, negative = inhibition": "inactive: 0.749%"},
      {"compound": "C#CCOc1ccc(/C=N/O)cc1Cl", "Potency": "inconclusive: 23.1 µM [activator, single point]"},
      {"compound": "Cc1cccc(NC(=S)NNC(=O)c2csc3c2CCC(C)C3)c1", "note": "(stereo unspecified)", "Potency": "inconclusive: 23.1 µM [activator, partial curve]"},
      {"compound": "CSc1ccccc1OCc1cc(C(=O)NC(C)CCn2cccn2)no1", "note": "(stereo unspecified)", "activity change, negative = inhibition": "inactive: -1.73%"},
      {"compound": "CN(C)/C=N/C(=S)Nc1ccc(Cl)c(Cl)c1", "Potency": "inconclusive: 20.6 µM [activator, single point]"},
      {"compound": "CCOc1ccc(NC(=O)CN2C(=O)NC(C)(c3ccc(OC(F)F)cc3)C2=O)cc1", "note": "(stereo unspecified)", "Potency": "inconclusive: 13 µM [activator, partial curve, poor fit]"},
      {"compound": "CC[C@@]1(c2cccc(C)c2)C(=O)N(C(=O)OC)N1C(=O)OC", "Potency": "inconclusive: 18.3 µM [activator, partial curve, poor fit]"},
      {"compound": "O=c1[nH]c2ccc(NS(=O)(=O)c3ccc(F)c(Cl)c3)cc2[nH]1", "Potency": "inconclusive: 8.2 µM [activator, partial curve, poor fit]"},
      {"compound": "Clc1ccc2c(N/N=C/c3cccc(Br)c3)ccnc2c1", "Potency": "inconclusive: 32.6 µM [inhibitor, partial curve, poor fit]"},
      {"compound": "CCOCCCn1c(=NC(=O)c2ccc(OC)c(OC)c2)c(C#N)cc2c(=O)n3cccc(C)c3nc21", "Potency": "inconclusive: 23.1 µM [inhibitor, partial curve, poor fit]"},
      {"compound": "CCOC(=O)C1(Cc2cccc(OC)c2)CCN(Cc2ccc(OC)c(OC)c2)CC1", "Potency": "inconclusive: 18.3 µM [inhibitor, partial curve]"},
      {"compound": "CC(=O)Nc1ccccc1OCC(=O)c1cc(C)n(Cc2cccs2)c1C", "Potency": "inconclusive: 10 µM [activator, partial curve]"},
      {"compound": "CC1(NC(=O)CSc2nnc(-c3c[nH]c4ccccc34)n2C2CC2)CCS(=O)(=O)C1", "note": "(stereo unspecified)", "activity change, negative = inhibition": "inactive: -1.83%"},
      {"compound": "C=CCOc1ccc(Br)cc1CNCC", "activity change, negative = inhibition": "inactive: -3.88%"},
      {"compound": "CC(C)C(c1nnnn1C1CCCCC1)N1CCOCC1", "note": "(stereo unspecified)", "Potency": "inconclusive: 18.4 µM [activator, single point]"},
      {"compound": "CCOC(=O)c1cnn(-c2ncnc3c2oc2ccccc23)c1N", "Potency": "inconclusive: 2.06 µM [activator, full curve]"},
      {"compound": "O=C(CCN1C(=O)C2C3CC(C(Br)C3Br)C2C1=O)OCC(=O)c1ccccc1", "note": "(stereo unspecified)", "activity change, negative = inhibition": "inactive: 8.65%"},
      {"compound": "COc1cccc(N(C(=O)c2snc(C(N)=O)c2N)C(C(=O)NCc2ccccc2)c2ccc(O)cc2)c1", "note": "(stereo unspecified)", "Potency": "inconclusive: 32.6 µM [inhibitor, single point]"},
      {"compound": "CC1Cc2cc(/C=C3/SC(=S)N(C)C3=O)ccc2O1", "note": "(stereo unspecified)", "Potency": "inconclusive: 23.1 µM [activator, single point]"},
      {"compound": "COc1ccccc1NC(=S)N(Cc1ccco1)Cc1cc2cc(C)ccc2[nH]c1=O", "Potency": "active: 16.4 µM"},
      {"compound": "COc1ccc(CN2CCN(c3ncccn3)CC2)c(C)c1C", "Potency": "inconclusive: 20.6 µM [inhibitor, single point]"},
      {"compound": "Cc1ccc(OCCSCc2nc3ccccc3[nH]2)cc1", "Potency": "inconclusive: 7.31 µM [inhibitor, partial curve]"},
      {"compound": "S=C(Nc1ccccc1)N1CCc2ccccc21", "activity change, negative = inhibition": "inactive: 17.3%"},
      {"compound": "COC(=O)c1cnn(-c2ccc(Cl)cc2)c1/C=N/NC(N)=S", "Potency": "active: 13 µM"},
      {"compound": "CCOC(=O)c1c(C)[nH]c(C(=O)NNC(=O)c2ccccc2)c1C", "Potency": "inconclusive: 29.1 µM [activator, single point]"},
      {"compound": "O=C(c1cc(Cl)ccc1O)N1CCN(S(=O)(=O)c2cccs2)CC1", "activity change, negative = inhibition": "inactive: 3.25%"},
      {"compound": "COc1ccccc1N(C)S(=O)(=O)c1ccc(Cl)c(C(=O)NCC2(N(C)C)CCCCC2)c1", "Potency": "inconclusive: 1.64 µM [inhibitor, partial curve, poor fit]"},
      {"compound": "Cn1cc(C(=O)N/N=C/c2cc(Br)cs2)c2ccccc21", "activity change, negative = inhibition": "inactive: 1.28%"},
      {"compound": "O=C(c1cc(Cl)ccc1Cl)N1CCN(Cc2ccccc2)CC1", "Potency": "inconclusive: 7.3 µM [inhibitor, partial curve, poor fit]"},
      {"compound": "CN1/C(=C/C(=S)NC(=O)C2CCC2)C(C)(C)c2ccccc21", "Potency": "inconclusive: 20.6 µM [inhibitor, single point]"},
      {"compound": "Cc1cccc(N=C2NN=C(c3ccc4c(c3)OCCO4)CS2)c1", "Potency": "inconclusive: 2.91 µM [activator, partial curve, poor fit]"},
      {"compound": "O=C(COc1ccccc1)Nc1nnc(-c2ccc(Cl)s2)o1", "activity change, negative = inhibition": "inactive: -0.9%"},
      {"compound": "Cn1c(SCc2cccc3ccccc23)nnc1-c1ccco1", "activity change, negative = inhibition": "inactive: -11.2%"},
      {"compound": "CCCCN(C(=O)CCC(=O)Nc1cc(C)on1)C(C(=O)NC(C)(C)CC)c1cccc(OC)c1OC", "note": "(stereo unspecified)", "activity change, negative = inhibition": "inactive: -1.85%"},
      {"compound": "C[C@]12C(=O)N(c3ccc(F)cc3)C(=O)N1[C@H]1c3ccccc3OC[C@@H]1[C@H]2c1ccccc1", "activity change, negative = inhibition": "inactive: -13.6%"},
      {"compound": "COc1ccccc1OCC(=O)NCCS(=O)(=O)N1CCN(c2ccccc2)CC1", "Potency": "inconclusive: 23.1 µM [inhibitor, single point]"},
      {"compound": "Cc1nonc1C1CCCN1C(=O)c1cc(COc2ccc(F)cc2Cl)on1", "note": "(stereo unspecified)", "activity change, negative = inhibition": "inactive: 6.57%"},
      {"compound": "NC(=NCCc1c[nH]c2ccccc12)NC(=O)c1ccc(F)cc1", "activity change, negative = inhibition": "inactive: 14%"},
      {"compound": "CCN(CC(=O)Nc1ccc(NC(C)=O)cc1)C(=O)COc1ccc2ccccc2c1", "activity change, negative = inhibition": "inactive: 6.87%"},
      {"compound": "COc1ccc(-n2nc(C)c3sc(C)nc3c2=O)cc1", "activity change, negative = inhibition": "inactive: 29.6%"},
      {"compound": "CCOc1ccc(C2CC(c3ccc(CC)cc3)Nc3nc(N)nn32)cc1", "note": "(stereo unspecified)", "Potency": "inconclusive: 20.6 µM [activator, single point]"},
      {"compound": "CN(CC(=O)Nc1ccc(S(=O)(=O)N2CCCC2)cc1)Cc1c(F)cccc1Cl", "Potency": "inconclusive: 29.1 µM [inhibitor, single point]"},
      {"compound": "COc1ccc(/C=C2/N=C3CCCCCN3C2=O)cc1OC", "Potency": "inconclusive: 18.4 µM [activator, single point]"},
      {"compound": "COc1cc(NC(=O)CN(C)C2CCCCC2)c(C)cc1[N+](=O)[O-]", "activity change, negative = inhibition": "inactive: -19.3%"},
      {"compound": "Cc1ccc(S(=O)(=O)Nc2cccc(C(=O)NCc3ccccn3)c2)cc1F", "Potency": "inconclusive: 25.9 µM [inhibitor, single point]"},
      {"compound": "COc1ccc(C)cc1Nc1nc(C)nc2c1oc1ccccc12", "Potency": "active: 5.17 µM"},
      {"compound": "O=C1N/C(=N/NC(=O)c2cccc3ccccc23)S/C1=C\\c1ccccc1OCc1ccccc1", "Potency": "inconclusive: 23.1 µM [inhibitor, partial curve]"},
      {"compound": "Fc1ccc(NC(=S)NCc2ccccc2Cl)cc1", "activity change, negative = inhibition": "inactive: -16.1%"},
      {"compound": "O=C1c2ccccc2C2=Nc3ccccc3SC(c3cccc(F)c3)C12", "note": "(stereo unspecified)", "Potency": "inconclusive: 23.1 µM [inhibitor, partial curve]"},
      {"compound": "CCOC(=O)c1ccc(NC(=O)c2nn(C)cc2Br)cc1", "Potency": "inconclusive: 29.1 µM [activator, single point]"},
      {"compound": "Cc1ccc(NC(=O)/C(CN(C)C)=N\\O)cc1", "Potency": "inconclusive: 13 µM [activator, single point]"},
      {"compound": "O=C(NCC1CCN(Cc2ccc(Cl)cc2)CC1)C1CCCN(c2ncnc3c2nc2n3CCCCC2)C1", "note": "(stereo unspecified)", "Potency": "inconclusive: 20.6 µM [inhibitor, partial curve, poor fit]"},
      {"compound": "O=C(Nc1ccc(Br)cc1)C1Cc2ccccc2O/C1=N\\O", "note": "(stereo unspecified)", "Potency": "inconclusive: 9.2 µM [activator, partial curve]"},
      {"compound": "Cc1ccc(CCc2nnc(SCC(=O)Nc3cccc(Cl)c3)n2-c2ccccc2)o1", "activity change, negative = inhibition": "inactive: 6.21%"},
      {"compound": "COc1cccc(Cn2c(OCC3CCCO3)nc3c2c(=O)n(C)c(=O)n3C)c1", "note": "(stereo unspecified)", "Potency": "inconclusive: 29.1 µM [inhibitor, partial curve, poor fit]"},
      {"compound": "COc1cccc(OCCNc2cc(Cl)ccc2[N+](=O)[O-])c1", "Potency": "inconclusive: 29.1 µM [activator, single point]"},
      {"compound": "Cc1cnc(NC(=O)c2cc(S(=O)(=O)N(C)C)ccc2N2CCCC2)s1", "Potency": "inconclusive: 11.6 µM [inhibitor, partial curve]"},
      {"compound": "CCCCc1c(C)nn(-c2nnc3c4ccccc4n(CC)c3n2)c1C", "Potency": "inconclusive: 20.6 µM [inhibitor, partial curve, poor fit]"},
      {"compound": "O=C(c1cc(-c2ccccc2)nc2ccccc12)N1CCOCC1", "activity change, negative = inhibition": "inactive: 13.7%"},
      {"compound": "CN(C)CCn1c2ccccc2c2nc3ccc([N+](=O)[O-])cc3cc21", "Potency": "inconclusive: 2.59 µM [inhibitor, partial curve, poor fit]"},
      {"compound": "Cc1ccc(N2CSC3=C(C#N)C(c4cccs4)CC(=O)N3C2)cc1", "note": "(stereo unspecified)", "Potency": "inconclusive: 18.4 µM [activator, single point]"},
      {"compound": "CCOC(=O)c1ccc(NC(=S)Nc2ccccn2)cc1", "Potency": "inconclusive: 2.31 µM [activator, full curve]"},
      {"compound": "CCC(C)N=C1Sc2nc3ccc(C)cc3cc2CN1CCOC", "note": "(stereo unspecified)", "activity change, negative = inhibition": "inconclusive: 28% [activator]"},
      {"compound": "CCOc1ccc(NC(=O)CN(C)C(=O)c2ccc(N3CCCCC3)c([N+](=O)[O-])c2)cc1OCC", "activity change, negative = inhibition": "inactive: -17.2%"},
      {"compound": "CCOC(=O)CC(=O)CSc1nc2c(cc1C#N)CCCCCC2", "Potency": "inconclusive: 25.9 µM [activator, partial curve, poor fit]"},
      {"compound": "COc1ccc(-c2nnc(OCc3ccccc3)c3ccccc23)cc1", "Potency": "inconclusive: 20.6 µM [inhibitor, single point]"},
      {"compound": "CC(=O)CSc1nc2cc3c(cc2cc1C#N)OCCO3", "Potency": "inconclusive: 3.66 µM [activator, partial curve]"},
      {"compound": "Cc1cc(S(=O)(=O)Nc2ccc(C(=O)NCc3cccnc3)cc2)ccc1F", "activity change, negative = inhibition": "inactive: 0.897%"},
      {"compound": "Cc1cc(C)cc(NC(=O)NC2CCCCCCC2)c1", "Potency": "inconclusive: 10.3 µM [activator, partial curve]"},
      {"compound": "O=C(NN=C1CCCC1)c1n[nH]c2c1CCCC2", "Potency": "inconclusive: 6.51 µM [activator, partial curve]"},
      {"compound": "CCc1nc(N)nc(N)c1-c1ccc(Cl)cc1", "activity change, negative = inhibition": "inactive: -1.07%"}
    ]}
  ]
}
